Data taken from patent US20240115742A1, “FLUORINATED FIBERS FOR MULTIMODAL 1H AND 19F MRI, ULTRASOUND, FLUORESCENCE DETECTION AND CONFORMATIONAL AND TEMPERATURE DETECTION BY 19F MRS” (New York University, priority 2022, published 2024).
Values joined by “and” are separate entries in the source; they are usually repeats but may differ in a detail not shown here. Equal entries are not always repeated.

How the values were obtained:
Assay type in all cases: physicochemical
[1] = Passive microrheology (multiple particle tracking); details: 2 mM, 4 °C
Procedure: Microrheology. Protein was concentrated to 2 mM, as measured by BCA assay, and immediately aliquoted 27.7 μL into a 200 μL PCR tube. 1% v/v (or 0.3 μL) of […] red polystyrene fluorometric beads (FluoSpheres) were then added to the sample. A glass capillary tube was then loaded with sample by capillary action and sealed to prevent evaporation while being affixed to a microscopy slide using two-component fast-curing epoxy (JB Weld). Samples were then imaged at 0 h as a starting measurement and then every 12 h using a Leica DMI4000b inverted microscope equipped with a Leica DFC310 FX 1.4 megapixel camera at 40× magnification with 2×2 binning. Between imaging, slides were incubated on a rotisserie at 8 rpm to prevent sedimentation of the fluorometric beads. Each image series was recorded for a total of 300 frames with a lag time (i) of 0.037 s between each frame. Relaxation exponents i.e. the logarithmic slopes of particle mean-squared displacements (MSDs) with respect to lag time as determined by multiple particle tracking (MPT) analysis were used to determine when equilibration of the hydrogel was complete and measurements were no longer recorded (60 h in this case). Images were stacked and converted to grayscale in MATLAB (Mathworks, R2021a) using code developed in-house, with MPT then being employed using MATLAB code developed and modified by Dufresene, Kilfoil, Blair, and O'Neill as described previously.
Gelation kinetics of the hydrogels were assessed using passive microrheology (FIG. 61a-e). Time to gelation was measured immediately after concentration to 2 mM at 4° C. by incubating with 1 μm fluorescent tracer beads added to the protein in solution state at a final concentration of 1% (v/v). […] Mean square displacements (MSDs) of bead trajectories were analyzed periodically per the span of respective protein gelation times. An initial MSD-τ curve corresponding to a solution at 1.00 μm^2 s^−1 (consistent with Brownian motion) was used as the master solution curve and the final MSD-τ curve measured per protein gelation was selected as the master gel curve. Intermediate MSD-τ curves measured were superimposed onto either the master solution or master gel curve using horizontal and vertical shift factors, a and b, respectively. The window of sol-gel transition was determined between where a divergence in superposition occurred for each protein gelation.
Microrheology. Microrheology was used to assess gelation kinetics as described previously. Immediately after concentration to 2 mM, 29.7 uL were aliquoted with 0.3 uL of 1 um diameter FluoSpheres and loaded into glass capillary tubes (VitroCom). Samples were then imaged using an inverted fluorescent microscope (ZEISS Microscopy) at 40× magnification with 2×2 binning. Samples were incubated at 4° C. on a rotisserie at 8 rpm between measurements and imaged incrementally at select time points. […] Images were stacked, converted to greyscale, and analyzed with multiple particle tracking (MPT) in MATLAB (Mathworks, R2021a). Prior to other experiments of hydrogels in the gel state, microrheology here was used to confirm its complete transition.

[2] = Circular dichroism wavelength scans
[3] = ATR-FTIR peak deconvolution of secondary structure; details: for Turns/Coils (%) / α-helix (%) / β-sheet(%): 2 mM
Procedure: Attenuated Total Reflectance-Fourier Transform Infrared Spectroscopy. Secondary structure of protein fiber variants was confirmed using attenuated total reflectance-Fourier transform infrared (ATR-FTIR) spectroscopy using the Nicolet 6700 Fourier Transform Infrared Spectrometer equipped with a diamond ATR accessory and a mercury cadmium telluride (MCT)-A detector. Spectra were collected for 5 μL of 500 μM protein from 4000-400 cm^−1 with 0.5 cm^−1 increments at room temperature (RT). For CCM bound protein, protein was bound at a final concentration of 500 μM and saturated with CCM as determined by fluorescent spectroscopic drug binding with a final 1% v/v DMSO. Sample spectra were normalized using buffer background and analyzed from 1700-1600 cm^−1 corresponding to the amide I region. Peaks were deconvoluted using Gaussian functions in PeakFit software until the goodness of fit reached r^2≥0.99. Peaks were associated with secondary structure were determined by methods known in the art.
(§1) Attenuated Total Reflectance-Fourier Transform Infrared Spectroscopy. Secondary structure of Q2 protein was confirmed using attenuated total reflectance-Fourier transform infrared (ATR-FTIR) spectroscopy using the Nicolet 6700 Fourier Transform Infrared Spectrometer equipped with a diamond ATR accessory and a mercury cadmium telluride (MCT)-A detector. Spectra were collected for 5 μL of 2 mM protein from 4000-400 cm^−1 with 0.5 cm^−1 increments. Sample spectra were normalized using buffer background and analyzed from 1700-1600 cm^−1 corresponding to the amide I region. Peaks were deconvoluted using Gaussian functions in PeakFit software until the goodness of fit reached r^2>0.99.
as §1, with “of Q2LTF and QLTF” for “of Q2”, “using a” for “using the”, “of 1” for “of 2”, “with 4.0” for “with 0.5”, “reached r^2≥0.99.” for “reached r^2>0.99.”
Attenuated Total Reflectance-Fourier Transform Infrared Spectroscopy. Secondary structure before (solution) and after gelation (gel) was also assessed by peak deconvolution of attenuated total reflectance-Fourier transform infrared (ATR-FTIR) spectra. ATR-FTIR measurements were performed using a Nicolet 6700 Fourier Transform Infrared Spectrometer equipped with a mercury cadmium telluride (MCT)-A detector. Spectra were collected for 5 μL samples of protein at 2 mM from 4000-400 cm^−1 with a 4.0 cm^−1 resolution, normalized, and buffer-subtracted prior to analysis from 1700-1600 cm^−1, corresponding to the amide I region. ATR-FTIR measurements were performed immediately after concentration to 2 mM for solution measurements and after. Peaks were deconvoluted using Gaussian functions in PeakFit software until the goodness of fit reached r^2≥0.99.

| Molecule | critical gelation time, tc (tgel) [1] | critical relaxation exponent, nc [1] | θ222/θ208 ([2]; Gel) | θ208 ([2]; Gel, 15 μM, 4 °C) | θ222 ([2]; Gel, 15 μM, 4 °C) | θ208 ([2]; Solution, 15 μM, 4 °C) | θ222 ([2]; Solution, 15 μM, 4 °C) | MRE minimum at 208 nm ([2]; solution) | MRE minimum at 222 nm ([2]; solution) | θ222/θ208 ([2]; solution) | Turns/Coils (%) ([3]; Gel) | α-helix (%) ([3]; Gel) | β-sheet(%) ([3]; Gel) | Turns/Coils (%) ([3]; Solution) | α-helix (%) ([3]; Solution) | β-sheet(%) ([3]; Solution) | θ208 ([2]; 25 °C, 15 μM, pH 4.0) | θ222 ([2]; 25 °C, 15 μM, pH 4.0) | θ222/θ208 ([2]; 25 °C, 15 μM, pH 4.0) | 3-10 Helix ([3]; native) | also measured |
| --- | --- | --- | --- | --- | --- | --- | --- | --- | --- | --- | --- | --- | --- | --- | --- | --- | --- | --- | --- | --- | --- |
| Q6: Q hydrogel variant from trimodal Monte Carlo search, SEQ ID NO: 15 (MRGSHHHHHHGSIEGRVKEITFIKKQIEQIAEEMKEINKAIHDIRHALENISKK) [Protein Q6] | 48.3 ± 1.7 h and ~48 h | 0.60±0.03 | 1.5 ± 0.1 | −16,000 ± 1,000 mdeg · cm^2 · dmol^−1 | −16,000 ± 1,000 mdeg · cm^2 · dmol^−1 | −25,000 ± 6,000 mdeg · cm^2 · dmol^−1 | −27,000 ± 6,000 mdeg · cm^2 · dmol^−1 | −25,000±6,100 deg cm^2 dmol^−1 | −26,800±6,000 deg cm^2 dmol^−1 | 1.1 ± 0.0 | 19.3 ± 2.5% | 33.8 ± 1.6% | 46.9 ± 2.6% | 26.7 ± 7.6% | 27.4 ± 6.8% | 57.6 ± 2.1% | – | – | – | – | – |
| Q4: Q hydrogel variant from Rosetta Monte Carlo search, SEQ ID NO: 13 (MRGSHHHHHHGSIEGRVKEITFIKKTIEQIAEEMKEINKAIHDIRHALENISKK) [Protein Q4] | 21.6 ± 2 h and 21.6 ± 2.0 h | 0.56±0.03 | 1.4 ± 0.2 | −5,000 ± 1,000 mdeg · cm^2 · dmol^−1 | −5,000 ± 1,000 mdeg · cm^2 · dmol^−1 | −6,000 ± 1,000 mdeg · cm^2 · dmol^−1 | −7,000 ± 1,000 mdeg · cm^2 · dmol^−1 | −5,600±1,400 deg cm^2 dmol^−1 | 7,100±800 deg cm^2 dmol^−1 | 1.3 ± 0.3 | 16.8 ± 3.5% | 34.7 ± 6.0% | 48.6 ± 4.2% | 15.2 ± 9.4% | 42.2 ± 8.8% | 45.2 ± 7.2% | – | – | – | – | – |
| Q7: Q hydrogel variant from trimodal Monte Carlo search, SEQ ID NO: 16 (MRGSHHHHHHGSIEGRVKEMTFIKKTIEQQAEEMKEINKAIHDIRHALENISKK) [Protein Q7] | 37.1 ± 0.1 h and ~37 h | 0.58 ± 0.0 | 1.2 ± 0.1 | −16,000 ± 2,000 mdeg · cm^2 · dmol^−1 | −15,000 ± 1,000 mdeg · cm^2 · dmol^−1 | −16,000 ± 1,000 mdeg · cm^2 · dmol^−1 | −15,000 ± 1,000 mdeg · cm^2 · dmol^−1 | −15,700±1,000 deg cm^2 dmol^−1 | −15,000±1,200 deg cm^2 dmol^−1 | 1.0 ± 0.0 | 29.4 ± 6.8% | 32.9 ± 6.3% | 37.6 ± 4.4% | 27.0 ± 8.5% | 27.8 ± 7.8% | 40.6 ± 16.0% | – | – | – | – | – |
| Q3: Q variant with V44I pore mutation, SEQ ID NO: 12 (MRGSHHHHHHGSIEGRVKEILFLKNTAYQMLLELKETNEALYDIRHLLQQQSKL) [Protein Q3] | 58 ± 0.4 h | 0.52 ± 0.01 | 2.3 ± 0.3 | −2,000 ± 0 mdeg · cm^2 · dmol^−1 | −4,000 ± 1,000 mdeg · cm^2 · dmol^−1 | −2,000 ± 1,000 mdeg · cm^2 · dmol^−1 | −3,000 ± 1,000 mdeg · cm^2 · dmol^−1 | −2,500±900 deg cm^2 dmol^−1 | −3,000±900 deg cm^2 dmol^−1 | 1.2 ± 0.1 | 19.3 ± 3.2% | 34.1 ± 6.1% | 46.5 ± 3.8% | 21.0 ± 3.5% | 32.1 ± 6.1% | 46.9 ± 4.2% | −19,000 ± 3,000 mdeg · cm^2 · dmol^−1 | −20,000 ± 2,000 mdeg · cm^2 · dmol^−1 | 1.08 ± 0.08 | 13.6% | Turns/Coils (combined, random content) ([3]; native): 18.8 ± 5.9%; Unordered ([3]; native): 0.0%; α-helix ([3]; native): 41.1%; β-sheet ([3]; native): 33.4%; β-sheet (combined) ([3]; native): 40.1 ± 5.9%; 3-10 Helix ([3]; w/CCM): 18.3%; Turns/Coils (combined) ([3]; w/CCM): 36.1 ± 17.5%; Unordered ([3]; w/CCM): 0.0%; α-helix ([3]; w/CCM): 34.3%; β-sheet ([3]; w/CCM): 22.0%; β-sheet (combined) ([3]; w/CCM): 29.6 ± 11.3% |
| C2: C variant with redistributed electrostatic patches, SEQ ID NO: 22 (MRGSHHHHHHGSIEGRMQLAKHMLKELQKTNALQSVRTLLQQQVEEITQLKETVENSDSS) [Protein C2] | – | – | – | – | – | – | – | – | – | – | – | – | – | – | – | – | −19,000 ± 1,000 mdeg · cm^2 · dmol^−1 | −18,000 ± 600 mdeg · cm^2 · dmol^−1 | 0.97 ± 0.02 | 4.1% | Turns/Coils (combined, random content) ([3]; native): 9.4±7.2%; Unordered ([3]; native): 0.0%; α-helix ([3]; native): 38.4%; β-sheet ([3]; native): 37.2%; β-sheet (combined) ([3]; native): 52.2 ± 3.6%; 3-10 Helix ([3]; w/CCM): 12.3%; Turns/Coils (combined) ([3]; w/CCM): 21.2 ± 6.7%; Unordered ([3]; w/CCM): 0.0%; α-helix ([3]; w/CCM): 50.0%; β-sheet ([3]; w/CCM): 23.9%; β-sheet (combined) ([3]; w/CCM): 28.7 ± 37.9% |
| C: cartilage oligomeric matrix protein coiled-coil with His tag, SEQ ID NO: 21 (protein, His tag) MRGSHHHHHHGSIEGRAPQMLRELQETNAALQDVRELLRQQVKEITFLKNTVMESDASGKL | – | – | – | – | – | – | – | – | – | – | – | – | – | – | – | – | −21,000 ± 5,000 mdeg · cm^2 · dmol^−1 | −23,000 ± 5,000 mdeg · cm^2 · dmol^−1 | 1.11 ± 0.06 | 10.6% | Turns/Coils (combined, random content) ([3]; native): 20.6 ± 12.0%; Unordered ([3]; native): 0.0%; α-helix ([3]; native): 42.7%; β-sheet ([3]; native): 25.1%; β-sheet (combined) ([3]; native): 36.5 ± 6.2%; 3-10 Helix ([3]; w/CCM): 19.1%; Turns/Coils (combined) ([3]; w/CCM): 39.9 ± 20.6%; Unordered ([3]; w/CCM): 0.0%; α-helix ([3]; w/CCM): 26.6%; β-sheet ([3]; w/CCM): 33.5%; β-sheet (combined) ([3]; w/CCM): 33.5 ± 37.9% |
